Experimental data: PMC9849758, “Chemically diverse activity-based probes with unexpected inhibitory mechanisms targeting trypsin-like serine proteases” (Frontiers in Chemistry, 2023)
The structures given here were assigned with low confidence; some may be wrong.

Chains of the proteins cited; added tags and fusions are not shown. Residues count along the entry.
UniProt P35030, whole entry: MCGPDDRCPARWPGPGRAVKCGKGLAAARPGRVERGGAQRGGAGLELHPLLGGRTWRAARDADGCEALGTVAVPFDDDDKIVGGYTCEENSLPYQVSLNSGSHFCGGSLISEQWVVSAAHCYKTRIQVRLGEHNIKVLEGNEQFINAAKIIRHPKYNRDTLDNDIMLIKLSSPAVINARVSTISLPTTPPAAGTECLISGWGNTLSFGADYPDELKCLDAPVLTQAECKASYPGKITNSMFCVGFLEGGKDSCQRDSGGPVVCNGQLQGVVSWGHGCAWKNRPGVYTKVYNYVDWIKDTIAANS
UniProt P20231, 31-275 limits assumed: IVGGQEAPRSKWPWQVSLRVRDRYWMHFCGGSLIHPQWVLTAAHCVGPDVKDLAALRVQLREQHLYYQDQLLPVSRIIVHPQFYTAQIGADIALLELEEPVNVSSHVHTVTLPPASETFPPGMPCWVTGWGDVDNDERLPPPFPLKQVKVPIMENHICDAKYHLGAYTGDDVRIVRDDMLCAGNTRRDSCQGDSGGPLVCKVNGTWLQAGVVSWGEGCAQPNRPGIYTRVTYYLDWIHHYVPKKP

Key:
Type in all cases: biochemical
[1] = target: T1, Trypsin-3 (Homo sapiens, UniProt P35030); experiment: Kinetic progress curves (kapp, K1, KI*, mechanism); details: apparent second-order rate constant from progress curves; mean ± SD; tested form: TFA
Method: (§1) Because the compounds described in this paper were previously described as irreversible inhibitors, the IC50 value is inversely correlated with the second-order rate constant of inactivation. For a simple pseudo-first-order inactivation process, the activity after incubation with inhibitor (vi) varies with the inhibitor concentration (i), as described in the following equation: vi=v0·e^−kit where v0 is the activity in the absence of an inhibitor, k is the second-order rate constant of inactivation, and t is the time. The inactivation rate constant was determined from the time course of inhibition.
(§2) Kinetic assays were performed in the following manner. The inhibitor was mixed with the substrate, and the buffer solution with the enzyme was added at the time zero. The progress curves show the release of pNA or AMC as a function of time. Initially, no inhibitor is bound to the enzyme, and the tangent to the progress curve (dA/dt) is proportional to the free enzyme concentration. The free enzyme concentration decreases over time due to inhibitor binding kinetics, as described above. Progress curves were recorded in pseudo-first-order conditions ([I]0>>[E]0) and with less than 10% conversion of the substrate during the entire time course. In these conditions, dA/dt decreases exponentially with time. The progress curves were fitted with the integrated rate equation with GraFit7 to yield a value for kobs, a pseudo-first-order rate constant. At=Ao+vs∙t+vi−vs∙1−e^−kobs∙t/kobs where At is the absorbance at time t, A0 is the absorbance at time zero, vi is the initial rate and vs is the velocity at the steady-state.
(§3) The apparent second-order rate constant (kapp) was calculated from the slope of the linear part of the plot of kobs vs. the inhibitor concentration ([I]0). […]

[2] = target: T2, Thrombin (Homo sapiens, UniProt P00734); experiment: Kinetic progress curves (kapp, K1, KI*, mechanism); details: apparent second-order rate constant from progress curves; mean ± SD; tested form: TFA
Method: as §1, §2, §3

[3] = target: T3, β-tryptase (Homo sapiens, UniProt P20231); experiment: Kinetic progress curves (kapp, K1, KI*, mechanism); details: apparent second-order rate constant from progress curves; mean ± SD; tested form: TFA
Method: as §1, §2, §3

[4] = target: T1, Trypsin-3; experiment: Jump dilution, determination of inhibition type; details: inhibitor at 10 times IC50, 15 min, diluted 10-fold or 100-fold; Rev./Irrev.; tested form: TFA
Method: (§4) To monitor the dissociation of the inhibitor-enzyme, aliquots of the enzyme were incubated at 37°C without and with the inhibitor at a concentration 10 times higher than its IC50. The enzyme concentration was 2.5 times higher than the concentration used for the IC50 determinations. After 15 min, the aliquots were diluted 10-fold or 100-fold into the substrate concentration and assay buffer used for the IC50 determination. The dissociation of the enzyme-inhibitor complex was monitored by substrate hydrolysis over time ([Joossens et al., 2006]).
(§5) Because ABPs are designed to be irreversible serine protease inhibitors, the IC50 is exclusively used as a first discriminatory evaluation. When an inhibitor is irreversible, its IC50 value not only depends on the substrate and enzyme concentration but also on the time of incubation with the enzyme before the reaction is started by adding the substrate. […] The progress curve in the presence of an irreversible inhibitor will show final velocities equal to zero (Figure 6C). In contrast, for a reversible inhibitor, progress curves have a non-zero final steady-state velocity (Figure 6A) ([McWhirter, 2021]). To corroborate the inhibitory mechanism of the compounds, jump-dilution assays were performed. These use an inhibitor concentration of 10-fold the IC50 for the incubation, and a posteriori, the reaction mixture is diluted 10-fold or 100-fold before adding the substrate. In the case of an irreversible inhibitor, enzymatic activity is not regained (Figure 6D), whereas, in the case of a reversible compound, a slow release of the inhibitor and a gradual increase of the enzymatic activity rate is observed (Figure 6B) ([Copeland, 2013]; [McWhirter, 2021]). The jump-dilution assays confirmed the behavior described by the progress curves.
(§6) 2.2.2 Jump dilution results
(§7) Supplementary Table 2. Jump dilution of selected alkyne and desthiobiotin probes against a panel of trypsin-like serine proteases. […]
(§8) # R R DtBa 3 tryptase Thrombin uPA CatG
(§9) 32b H Alk Irrev. Irrev. Rev. Irrev. Rev.
(§10) 45b DtB Irrev. Irrev. Rev. N.D. N.D.
(§11) 33b Alk Irrev. Irrev. Rev. Irrev. Rev.
(§12) 46b Cl DtB Irrev. Irrev. Rev. N.D. N.D.
(§13) 34b H Alk Rev. Rev. Rev. Irrev. Rev.
(§14) 50b DtB Rev. Rev. Rev. Irrev. Rev.
(§15) 35b Alk Rev. Rev. Rev. Irrev. Rev.
(§16) 52b NHCOMe DtB Rev. Rev. Rev. Irrev. Rev.
(§17) 36b Alk Rev. Rev. Rev. Irrev. Rev.
(§18) 54b Cl DtB Rev. Rev. Rev. Irrev. Rev.
(§19) 37b Alk Irrev. Irrev. N.D. Irrev. Irrev.
(§20) 55b H DtB Irrev. Irrev. N.D. Irrev. Irrev.
(§21) 38b Alk Irrev. Irrev. N.D. Irrev. Irrev.
(§22) 56b NHCOMe DtB Irrev. Irrev. N.D. Irrev. Irrev.
(§23) 39b Alk Irrev. Irrev. N.D. Irrev. Rev.
(§24) 57b Cl DtB Irrev. Irrev. N.D. Irrev. Rev.
(§25) 41b H Alk Irrev. Irrev. Irrev. N.D. N.D.
(§26) 31b Pro-Lys H Alk Irrev. Irrev. […]

[5] = target: T2, Thrombin; experiment: Jump dilution, determination of inhibition type; details: inhibitor at 10 times IC50, 15 min, diluted 10-fold or 100-fold; Rev./Irrev.; tested form: TFA
Method: as §4, §5, §6, §7, §8, §9, §10, §11, §12, §13, §14, §15, §16, §17, §18, §19, §20, §21, §22, §23, §24, §25, §26

[6] = target: uPA (Homo sapiens, UniProt P00749); experiment: Jump dilution, determination of inhibition type; details: inhibitor at 10 times IC50, 15 min, diluted 10-fold or 100-fold; Rev./Irrev.; tested form: TFA
Method: as §4, §5, §6, §7, §8, §9, §10, §11, §12, §13, §14, §15, §16, §17, §18, §19, §20, §21, §22, §23, §24, §25, §26

[7] = target: T3, β-tryptase; experiment: Jump dilution, determination of inhibition type; details: inhibitor at 10 times IC50, 15 min, diluted 10-fold or 100-fold; Rev./Irrev.; tested form: TFA
Method: as §4, §5, §6, §7, §8, §9, §10, §11, §12, §13, §14, §15, §16, §17, §18, §19, §20, §21, §22, §23, §24, §25, §26

`C#CCCCC(=O)N1CCCC1C(=O)NC(CCCCN)P(=O)(Oc1ccccc1)Oc1ccccc1` (stereo not shown) was tested, and the Trypsin-3 kapp [1] was 13 × 10^2 ± 28 M^−1 s^−1, the Thrombin kapp [2] was 13 × 10^2 ± 5 M^−1 s^−1 and the β-tryptase kapp [3] was 136 ± 3 M⁻¹ s⁻¹. For the same compound, the “Trypsin-3 jump dilution result” value [4] was “Irrev”, the “Thrombin jump dilution result” value [5] was “Irrev” and the “uPA jump dilution result” value [6] was “Irrev”. For the same compound, the “β-tryptase jump dilution result” value [7] was “Irrev”.
